Experimental findings from publication PMC9636422 are described below.

Chains of the proteins cited; added tags and fusions are not shown. Lines headed by an entry give the natural chain unless they say otherwise; changes in a name come on top. A line that says so, or that is headed by a name, gives the form on record, which may keep a tag or linker.
UniProt O14977: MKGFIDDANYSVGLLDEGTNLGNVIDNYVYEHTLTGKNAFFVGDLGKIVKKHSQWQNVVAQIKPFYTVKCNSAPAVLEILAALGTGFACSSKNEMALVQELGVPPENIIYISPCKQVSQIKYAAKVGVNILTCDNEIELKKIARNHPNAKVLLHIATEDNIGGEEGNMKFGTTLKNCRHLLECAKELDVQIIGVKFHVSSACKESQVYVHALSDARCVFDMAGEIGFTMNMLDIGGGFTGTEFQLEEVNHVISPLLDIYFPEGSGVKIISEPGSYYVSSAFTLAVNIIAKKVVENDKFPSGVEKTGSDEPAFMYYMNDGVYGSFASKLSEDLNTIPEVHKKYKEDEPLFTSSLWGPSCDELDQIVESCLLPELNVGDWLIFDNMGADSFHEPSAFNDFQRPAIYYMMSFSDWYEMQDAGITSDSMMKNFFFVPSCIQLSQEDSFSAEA
FLAG-tagged edited AZIN1 (Ser367Gly) (O14977, form named): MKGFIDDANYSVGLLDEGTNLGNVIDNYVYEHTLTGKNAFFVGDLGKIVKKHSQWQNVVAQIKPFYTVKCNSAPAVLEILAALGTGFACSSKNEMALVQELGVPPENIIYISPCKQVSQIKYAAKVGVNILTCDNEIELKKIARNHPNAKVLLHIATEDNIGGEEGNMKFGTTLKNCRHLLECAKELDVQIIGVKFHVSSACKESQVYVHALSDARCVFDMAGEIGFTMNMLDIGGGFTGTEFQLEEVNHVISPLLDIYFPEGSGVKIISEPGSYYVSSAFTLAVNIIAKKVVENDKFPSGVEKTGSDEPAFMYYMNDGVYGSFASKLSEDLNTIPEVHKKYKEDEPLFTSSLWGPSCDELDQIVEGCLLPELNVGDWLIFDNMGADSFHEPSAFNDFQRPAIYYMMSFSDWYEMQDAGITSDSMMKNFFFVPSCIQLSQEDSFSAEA
UniProt P35579: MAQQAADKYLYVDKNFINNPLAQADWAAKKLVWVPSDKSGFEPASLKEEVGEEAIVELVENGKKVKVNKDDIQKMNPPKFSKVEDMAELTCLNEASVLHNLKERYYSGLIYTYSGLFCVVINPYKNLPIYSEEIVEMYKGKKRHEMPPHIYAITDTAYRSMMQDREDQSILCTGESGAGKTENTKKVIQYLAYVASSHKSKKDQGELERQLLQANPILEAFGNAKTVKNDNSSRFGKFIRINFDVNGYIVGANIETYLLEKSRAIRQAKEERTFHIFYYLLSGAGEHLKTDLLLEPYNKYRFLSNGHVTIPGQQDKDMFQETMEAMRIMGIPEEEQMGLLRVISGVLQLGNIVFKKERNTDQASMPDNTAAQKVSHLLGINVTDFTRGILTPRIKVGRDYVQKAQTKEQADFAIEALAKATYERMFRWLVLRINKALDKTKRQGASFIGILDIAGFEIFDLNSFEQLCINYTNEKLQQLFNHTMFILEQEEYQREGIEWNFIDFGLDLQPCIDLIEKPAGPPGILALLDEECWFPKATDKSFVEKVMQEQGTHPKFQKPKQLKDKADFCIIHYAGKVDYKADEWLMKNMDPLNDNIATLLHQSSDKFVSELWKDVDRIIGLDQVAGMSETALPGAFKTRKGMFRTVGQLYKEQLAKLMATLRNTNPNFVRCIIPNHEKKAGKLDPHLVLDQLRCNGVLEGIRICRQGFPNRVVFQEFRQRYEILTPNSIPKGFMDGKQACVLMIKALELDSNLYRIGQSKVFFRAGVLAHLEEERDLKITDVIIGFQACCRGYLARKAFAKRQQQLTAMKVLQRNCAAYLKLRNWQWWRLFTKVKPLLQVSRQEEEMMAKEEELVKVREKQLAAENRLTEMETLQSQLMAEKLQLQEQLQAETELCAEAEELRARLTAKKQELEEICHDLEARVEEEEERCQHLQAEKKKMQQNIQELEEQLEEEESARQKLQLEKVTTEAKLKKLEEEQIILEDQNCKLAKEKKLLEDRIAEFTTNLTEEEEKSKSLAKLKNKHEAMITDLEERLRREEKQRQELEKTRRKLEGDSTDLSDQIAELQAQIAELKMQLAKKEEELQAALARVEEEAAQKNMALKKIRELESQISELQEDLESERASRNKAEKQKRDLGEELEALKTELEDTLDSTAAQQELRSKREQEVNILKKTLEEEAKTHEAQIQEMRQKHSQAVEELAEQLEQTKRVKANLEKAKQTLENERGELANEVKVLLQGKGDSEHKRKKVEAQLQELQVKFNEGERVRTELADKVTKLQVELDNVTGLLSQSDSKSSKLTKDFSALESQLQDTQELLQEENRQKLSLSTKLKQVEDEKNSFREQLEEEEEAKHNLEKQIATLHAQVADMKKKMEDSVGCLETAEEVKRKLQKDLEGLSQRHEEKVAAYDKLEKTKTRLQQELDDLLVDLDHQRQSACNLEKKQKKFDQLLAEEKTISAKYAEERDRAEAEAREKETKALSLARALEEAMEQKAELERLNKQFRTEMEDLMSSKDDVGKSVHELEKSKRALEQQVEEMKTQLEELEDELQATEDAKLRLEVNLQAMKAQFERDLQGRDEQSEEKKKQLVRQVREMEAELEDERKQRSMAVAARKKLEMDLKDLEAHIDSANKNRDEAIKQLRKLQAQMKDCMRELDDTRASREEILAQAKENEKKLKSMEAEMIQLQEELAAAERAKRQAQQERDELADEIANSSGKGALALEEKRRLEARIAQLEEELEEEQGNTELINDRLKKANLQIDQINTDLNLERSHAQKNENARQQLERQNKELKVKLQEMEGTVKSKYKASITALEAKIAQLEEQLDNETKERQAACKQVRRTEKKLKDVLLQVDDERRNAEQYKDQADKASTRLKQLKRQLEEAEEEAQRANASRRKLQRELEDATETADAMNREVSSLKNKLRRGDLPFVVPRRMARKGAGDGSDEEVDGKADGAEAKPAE

For this test, the target named is FLAG-tagged edited AZIN1 (Ser367Gly) (human) (UniProt O14977). The experiment in a line: affinity purification with mass spectrometry; HEK293 cells transfected with FLAG-wtAZIN1 or FLAG-edAZIN1; anti-FLAG immunoprecipitation, gel electrophoresis, Coomassie-stained bands analysed by LC-MS/MS; IgG as control.

Results are given in words; binding and its absence hold for the method and conditions named. In cells and extracts the contact can be indirect. A yes stands for co-enrichment or nearness to the bait. Other partners may have been found.

Regarding myosin-9 (from UniProt P35579 1-1960), the binding result is given as “binds”.
